This is one part of the list.
Tests used:
Assay in all cases: log2 fold change, soluble protein after heating vs DMSO (PISA); higher = thermal stabilisation; K562 cells, 10 uM, 30 min; active = over 0.2 and 3.5 SD of the protein, either way, in both replicates (recomputed)
[1] = compound: COC1=CC=C(C=C1)CN2C=CC3=C2C=C(C=C3)C(=O)NO
Summary of the method: (§1)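 Quantification of soluble protein used TMTpro 16plex LC-MS/MS, with channel sums equalised. Samples were the supernatant after 21,000xg for 90 min of pooled aliquots from K562 cells (2×10^6 cells/mL) treated with 10 μM compound for 30 min, heated for 3 min over 48°C-58°C, and extracted in PBS with 0.5% NP-40 at 4°C. Values, from duplicates, describe thermal stability against control samples on a log2 fold-change scale.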

Protein sequences, listed by entry. Tags and fused reporters are not part of them. Lines headed by an entry give the natural chain unless they say otherwise; changes in a name come on top.
UniProt O15120: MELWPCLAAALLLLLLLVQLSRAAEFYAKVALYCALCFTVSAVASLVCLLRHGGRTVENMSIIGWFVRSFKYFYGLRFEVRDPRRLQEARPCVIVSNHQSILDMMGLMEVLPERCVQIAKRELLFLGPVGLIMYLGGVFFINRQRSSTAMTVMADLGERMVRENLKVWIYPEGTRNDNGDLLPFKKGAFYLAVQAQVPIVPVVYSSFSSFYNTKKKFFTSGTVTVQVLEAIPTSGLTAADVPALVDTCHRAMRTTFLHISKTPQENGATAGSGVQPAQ
UniProt Q9NXW9: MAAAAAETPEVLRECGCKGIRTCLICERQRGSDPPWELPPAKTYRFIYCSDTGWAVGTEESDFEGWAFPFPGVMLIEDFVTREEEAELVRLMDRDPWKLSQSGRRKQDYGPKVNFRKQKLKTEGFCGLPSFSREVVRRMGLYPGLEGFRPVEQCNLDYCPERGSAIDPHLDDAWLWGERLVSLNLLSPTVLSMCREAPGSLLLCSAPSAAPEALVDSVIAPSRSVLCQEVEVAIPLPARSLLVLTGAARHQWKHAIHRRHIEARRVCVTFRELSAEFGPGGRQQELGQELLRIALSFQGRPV
UniProt Q9Y3D8, whole entry, looked up: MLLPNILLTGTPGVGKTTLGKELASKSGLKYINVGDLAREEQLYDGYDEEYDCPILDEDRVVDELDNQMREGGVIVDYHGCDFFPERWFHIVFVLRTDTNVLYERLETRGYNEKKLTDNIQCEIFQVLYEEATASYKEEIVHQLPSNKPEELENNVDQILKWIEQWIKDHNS
UniProt Q6P6C2: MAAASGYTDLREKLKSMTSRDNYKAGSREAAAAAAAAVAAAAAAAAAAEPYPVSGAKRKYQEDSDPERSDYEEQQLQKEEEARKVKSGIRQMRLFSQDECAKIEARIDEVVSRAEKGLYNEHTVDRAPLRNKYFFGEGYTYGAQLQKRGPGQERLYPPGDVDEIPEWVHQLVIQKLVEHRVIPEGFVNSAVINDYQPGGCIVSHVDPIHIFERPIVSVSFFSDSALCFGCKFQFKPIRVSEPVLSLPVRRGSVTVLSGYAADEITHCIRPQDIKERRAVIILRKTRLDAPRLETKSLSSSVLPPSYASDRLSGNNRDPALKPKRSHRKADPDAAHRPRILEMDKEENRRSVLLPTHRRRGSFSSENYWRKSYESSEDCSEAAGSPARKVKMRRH
UniProt Q9UEY8: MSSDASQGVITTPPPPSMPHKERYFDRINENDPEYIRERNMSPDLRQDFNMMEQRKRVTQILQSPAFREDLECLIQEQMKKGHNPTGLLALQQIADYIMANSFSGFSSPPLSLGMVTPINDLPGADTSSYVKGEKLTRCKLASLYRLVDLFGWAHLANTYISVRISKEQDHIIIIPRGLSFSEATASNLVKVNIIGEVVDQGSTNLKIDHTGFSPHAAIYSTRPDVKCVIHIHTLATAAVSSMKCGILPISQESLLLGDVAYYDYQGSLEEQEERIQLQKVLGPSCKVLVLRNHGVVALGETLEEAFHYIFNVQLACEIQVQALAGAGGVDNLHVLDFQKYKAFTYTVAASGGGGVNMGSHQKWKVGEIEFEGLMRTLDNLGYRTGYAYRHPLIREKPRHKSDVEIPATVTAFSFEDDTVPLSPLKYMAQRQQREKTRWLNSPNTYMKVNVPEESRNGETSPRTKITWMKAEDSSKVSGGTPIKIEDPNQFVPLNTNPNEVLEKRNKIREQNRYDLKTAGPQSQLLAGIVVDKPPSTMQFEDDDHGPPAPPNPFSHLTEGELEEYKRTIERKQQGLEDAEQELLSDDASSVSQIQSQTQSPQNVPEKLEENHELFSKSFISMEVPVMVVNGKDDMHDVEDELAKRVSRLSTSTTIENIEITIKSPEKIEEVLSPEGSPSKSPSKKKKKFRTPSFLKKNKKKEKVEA
UniProt Q9Y673: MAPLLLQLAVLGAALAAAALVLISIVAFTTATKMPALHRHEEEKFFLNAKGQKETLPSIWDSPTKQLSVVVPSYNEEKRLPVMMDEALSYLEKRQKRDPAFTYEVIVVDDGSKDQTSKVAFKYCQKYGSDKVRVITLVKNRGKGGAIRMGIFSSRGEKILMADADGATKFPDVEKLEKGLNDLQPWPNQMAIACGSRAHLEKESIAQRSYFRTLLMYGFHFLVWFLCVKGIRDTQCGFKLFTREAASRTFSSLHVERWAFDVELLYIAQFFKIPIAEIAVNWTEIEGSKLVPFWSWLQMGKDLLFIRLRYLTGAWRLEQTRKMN
UniProt Q9UKV5, whole entry, looked up: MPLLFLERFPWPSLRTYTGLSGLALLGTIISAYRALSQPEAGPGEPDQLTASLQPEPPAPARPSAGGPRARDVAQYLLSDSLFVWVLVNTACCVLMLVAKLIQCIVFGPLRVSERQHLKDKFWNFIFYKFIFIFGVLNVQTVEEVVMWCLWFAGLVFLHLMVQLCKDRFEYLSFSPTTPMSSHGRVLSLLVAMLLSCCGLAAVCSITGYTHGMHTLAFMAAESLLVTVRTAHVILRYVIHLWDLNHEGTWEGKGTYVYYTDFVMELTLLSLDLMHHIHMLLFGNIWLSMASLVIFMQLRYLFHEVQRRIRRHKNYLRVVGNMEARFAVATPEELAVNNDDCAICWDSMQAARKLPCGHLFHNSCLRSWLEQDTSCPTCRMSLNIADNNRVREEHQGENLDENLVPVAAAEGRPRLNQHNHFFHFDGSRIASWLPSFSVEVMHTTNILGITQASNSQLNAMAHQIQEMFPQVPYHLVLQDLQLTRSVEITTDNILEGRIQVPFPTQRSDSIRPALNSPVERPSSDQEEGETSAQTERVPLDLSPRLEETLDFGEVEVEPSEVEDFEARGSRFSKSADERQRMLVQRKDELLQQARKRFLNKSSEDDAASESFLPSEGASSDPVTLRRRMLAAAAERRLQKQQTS
UniProt P05091: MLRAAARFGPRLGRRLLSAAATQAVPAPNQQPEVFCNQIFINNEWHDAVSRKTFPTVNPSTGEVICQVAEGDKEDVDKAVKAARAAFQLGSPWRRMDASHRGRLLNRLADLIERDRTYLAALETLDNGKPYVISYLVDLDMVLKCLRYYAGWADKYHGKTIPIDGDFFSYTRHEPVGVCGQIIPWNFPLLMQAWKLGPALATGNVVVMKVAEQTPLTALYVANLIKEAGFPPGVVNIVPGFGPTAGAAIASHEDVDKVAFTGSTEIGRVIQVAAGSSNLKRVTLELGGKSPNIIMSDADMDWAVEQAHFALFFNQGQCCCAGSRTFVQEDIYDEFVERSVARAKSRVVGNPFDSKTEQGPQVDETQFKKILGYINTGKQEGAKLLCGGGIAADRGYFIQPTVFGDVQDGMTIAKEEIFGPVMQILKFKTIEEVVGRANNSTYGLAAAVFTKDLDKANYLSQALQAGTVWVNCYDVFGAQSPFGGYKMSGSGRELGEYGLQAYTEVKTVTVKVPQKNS
UniProt O43865, whole entry, looked up: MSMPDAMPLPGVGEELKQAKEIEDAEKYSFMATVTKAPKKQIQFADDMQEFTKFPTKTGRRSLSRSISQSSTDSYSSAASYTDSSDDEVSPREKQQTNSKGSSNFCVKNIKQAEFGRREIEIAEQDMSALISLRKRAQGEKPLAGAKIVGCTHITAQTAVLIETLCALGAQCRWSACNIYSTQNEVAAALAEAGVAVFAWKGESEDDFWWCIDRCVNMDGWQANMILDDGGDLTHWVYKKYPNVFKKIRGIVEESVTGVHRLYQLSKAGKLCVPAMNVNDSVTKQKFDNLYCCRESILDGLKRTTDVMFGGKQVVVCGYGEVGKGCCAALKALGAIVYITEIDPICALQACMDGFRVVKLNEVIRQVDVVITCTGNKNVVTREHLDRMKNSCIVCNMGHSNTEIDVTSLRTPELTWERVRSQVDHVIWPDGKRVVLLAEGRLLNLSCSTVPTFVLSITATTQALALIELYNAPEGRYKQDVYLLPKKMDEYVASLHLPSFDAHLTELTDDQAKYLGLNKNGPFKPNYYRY
UniProt P54886: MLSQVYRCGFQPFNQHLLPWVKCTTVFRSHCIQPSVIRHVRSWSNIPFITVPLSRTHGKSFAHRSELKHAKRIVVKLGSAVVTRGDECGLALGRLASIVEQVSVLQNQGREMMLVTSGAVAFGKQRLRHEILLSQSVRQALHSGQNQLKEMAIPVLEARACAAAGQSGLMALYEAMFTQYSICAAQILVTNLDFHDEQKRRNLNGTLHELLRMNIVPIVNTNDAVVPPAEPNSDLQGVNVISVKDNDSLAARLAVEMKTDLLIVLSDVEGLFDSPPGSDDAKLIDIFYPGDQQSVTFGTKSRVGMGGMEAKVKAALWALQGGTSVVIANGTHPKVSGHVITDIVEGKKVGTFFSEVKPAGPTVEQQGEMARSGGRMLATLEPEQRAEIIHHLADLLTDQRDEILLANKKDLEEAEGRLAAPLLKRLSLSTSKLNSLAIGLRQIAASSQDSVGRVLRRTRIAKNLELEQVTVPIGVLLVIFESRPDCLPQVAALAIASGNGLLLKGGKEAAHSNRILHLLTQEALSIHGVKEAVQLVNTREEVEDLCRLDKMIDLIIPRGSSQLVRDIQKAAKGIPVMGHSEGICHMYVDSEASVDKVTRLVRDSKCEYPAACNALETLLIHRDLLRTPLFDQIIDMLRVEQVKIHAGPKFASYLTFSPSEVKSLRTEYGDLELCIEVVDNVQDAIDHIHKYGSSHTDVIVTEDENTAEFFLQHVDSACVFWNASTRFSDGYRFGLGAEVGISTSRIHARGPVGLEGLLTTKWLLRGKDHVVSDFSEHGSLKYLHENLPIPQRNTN
UniProt Q02252: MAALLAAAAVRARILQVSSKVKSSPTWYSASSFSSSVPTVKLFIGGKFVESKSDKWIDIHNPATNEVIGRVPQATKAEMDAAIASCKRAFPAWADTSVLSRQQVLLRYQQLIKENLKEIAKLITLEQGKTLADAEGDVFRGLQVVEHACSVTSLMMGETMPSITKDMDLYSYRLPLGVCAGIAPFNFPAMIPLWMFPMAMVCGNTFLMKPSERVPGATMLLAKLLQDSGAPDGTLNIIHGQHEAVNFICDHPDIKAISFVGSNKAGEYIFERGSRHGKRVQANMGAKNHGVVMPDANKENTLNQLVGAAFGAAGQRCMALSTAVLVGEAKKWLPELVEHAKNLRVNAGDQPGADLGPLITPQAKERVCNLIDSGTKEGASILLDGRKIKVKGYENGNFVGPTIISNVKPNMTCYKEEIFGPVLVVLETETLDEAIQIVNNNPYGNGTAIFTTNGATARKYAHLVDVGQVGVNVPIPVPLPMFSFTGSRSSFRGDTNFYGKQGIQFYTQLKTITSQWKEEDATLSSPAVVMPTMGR
UniProt Q9NX46: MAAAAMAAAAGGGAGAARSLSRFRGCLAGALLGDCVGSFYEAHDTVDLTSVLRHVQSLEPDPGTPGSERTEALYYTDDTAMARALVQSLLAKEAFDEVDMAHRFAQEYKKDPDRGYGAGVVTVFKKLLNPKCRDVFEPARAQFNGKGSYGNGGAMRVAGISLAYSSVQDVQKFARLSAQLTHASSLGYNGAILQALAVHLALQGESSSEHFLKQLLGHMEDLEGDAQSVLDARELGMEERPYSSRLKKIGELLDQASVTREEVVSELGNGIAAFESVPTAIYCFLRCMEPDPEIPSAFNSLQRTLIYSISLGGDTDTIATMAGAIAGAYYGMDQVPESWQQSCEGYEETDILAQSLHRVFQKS
UniProt O00116: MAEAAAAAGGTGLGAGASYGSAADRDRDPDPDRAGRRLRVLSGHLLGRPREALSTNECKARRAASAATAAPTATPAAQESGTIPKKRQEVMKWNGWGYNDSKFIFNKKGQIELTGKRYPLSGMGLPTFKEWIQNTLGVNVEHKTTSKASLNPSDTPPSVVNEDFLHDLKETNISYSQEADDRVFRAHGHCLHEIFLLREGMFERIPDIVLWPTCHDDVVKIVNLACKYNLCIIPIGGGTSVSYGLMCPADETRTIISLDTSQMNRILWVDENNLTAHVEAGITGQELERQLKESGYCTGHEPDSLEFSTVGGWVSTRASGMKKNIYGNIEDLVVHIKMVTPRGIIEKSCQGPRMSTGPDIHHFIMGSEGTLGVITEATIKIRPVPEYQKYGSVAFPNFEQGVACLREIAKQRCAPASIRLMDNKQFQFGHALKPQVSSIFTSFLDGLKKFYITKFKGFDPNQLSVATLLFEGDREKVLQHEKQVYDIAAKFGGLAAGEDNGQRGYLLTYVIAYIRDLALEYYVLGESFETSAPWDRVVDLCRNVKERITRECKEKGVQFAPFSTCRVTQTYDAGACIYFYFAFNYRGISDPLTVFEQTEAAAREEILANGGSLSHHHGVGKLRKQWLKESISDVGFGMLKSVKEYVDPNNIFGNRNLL

filanesib = compound: CON(C)C(=O)N1N=C(c2cc(F)ccc2F)S[C@@]1(CCCN)c1ccccc1 [filanesib]
Summary of the method: as §1

zotarolimus = compound: CO[C@H]1C[C@@H]2CC[C@@H](C)[C@@](O)(O2)C(=O)C(=O)N2CCCC[C@H]2C(=O)O[C@H]([C@H](C)C[C@@H]2CC[C@H](n3cnnn3)[C@H](OC)C2)CC(=O)[C@H](C)/C=C(\C)[C@@H](O)[C@@H](OC)C(=O)[C@H](C)C[C@H](C)/C=C/C=C/C=C/1C [zotarolimus]
Summary of the method: as §1

idasanutlin = compound: COc1cc(C(=O)O)ccc1NC(=O)[C@@H]1N[C@@H](CC(C)(C)C)[C@](C#N)(c2ccc(Cl)cc2F)[C@H]1c1cccc(Cl)c1F [idasanutlin]
Summary of the method: as §1

alisertib = compound: COc1cc(Nc2ncc3c(n2)-c2ccc(Cl)cc2C(c2c(F)cccc2OC)=NC3)ccc1C(=O)O [alisertib]
Summary of the method: as §1

[2] = compound: COc1cc2nc(-c3cc(F)ccc3O)nc(N[C@@H]3CNC[C@H]3C(C)(C)O)c2cc1OC
Summary of the method: as §1

gefitinib = compound: COc1cc2ncnc(Nc3ccc(F)c(Cl)c3)c2cc1OCCCN1CCOCC1 [gefitinib]
Summary of the method: as §1

[3] = compound: COc1cccc2cc(-c3nc([C@H]4CC[C@H](C(=O)O)CC4)n4ncnc(N)c34)[nH]c12
Summary of the method: as §1

lapatinib = compound: CS(=O)(=O)CCNCc1ccc(-c2ccc3ncnc(Nc4ccc(OCc5cccc(F)c5)c(Cl)c4)c3c2)o1 [lapatinib]
Summary of the method: as §1

pictilisib = compound: CS(=O)(=O)N1CCN(Cc2cc3nc(-c4cccc5[nH]ncc45)nc(N4CCOCC4)c3s2)CC1 [pictilisib]
Summary of the method: as §1

[4] = compound: CS(=O)(=O)c1ccc(-c2cnc(N)c(C(=O)Nc3ccccc3)n2)cc1
Summary of the method: as §1

crizotinib = compound: C[C@@H](Oc1cc(-c2cnn(C3CCNCC3)c2)cnc1N)c1c(Cl)ccc(F)c1Cl [crizotinib]
Summary of the method: as §1

[5] = compound: C[C@@H]1COCCN1C2=NC(=NC(=C2)C3(CC3)S(=O)(=O)C)C4=C5C=CNC5=CC=C4
Summary of the method: as §1

[6] = compound: C[C@H](C1=CC=C(C=C1)C(=O)NC2=C3C=CNC3=NC=C2)N
Summary of the method: as §1

duvelisib = compound: C[C@H](Nc1ncnc2nc[nH]c12)c1cc2cccc(Cl)c2c(=O)n1-c1ccccc1 [duvelisib]
Summary of the method: as §1

gandotinib = compound: Cc1cc(Nc2cc(CN3CCOCC3)c3nc(C)c(Cc4ccc(Cl)cc4F)n3n2)n[nH]1 [gandotinib]
Summary of the method: as §1

tozasertib = compound: Cc1cc(Nc2cc(N3CCN(C)CC3)nc(Sc3ccc(NC(=O)C4CC4)cc3)n2)n[nH]1 [tozasertib]
Summary of the method: as §1

[7] = compound: Cc1cc(SCc2sc(-c3ccc(C(F)(F)F)cc3)nc2C)ccc1OCC(=O)O
Summary of the method: as §1

doramapimod = compound: Cc1ccc(-n2nc(C(C)(C)C)cc2NC(=O)Nc2ccc(OCCN3CCOCC3)c3ccccc23)cc1 [doramapimod]
Summary of the method: as §1

ispinesib = compound: Cc1ccc(C(=O)N(CCCN)[C@@H](c2nc3cc(Cl)ccc3c(=O)n2Cc2ccccc2)C(C)C)cc1 [ispinesib]
Summary of the method: as §1

Measured: log2 fold change

AGPAT2 (UniProt O15120)
inactive: [1] 0.055 | filanesib -0.038 | zotarolimus -0.023 | idasanutlin 0.021 | alisertib -0.106 | [2] -0.055 | gefitinib 0.038 | [3] 0.004 | lapatinib 0.107 | pictilisib 0.001 | [4] -0.023 | crizotinib 0.008 | [5] 0.003 | [6] 0.003 | duvelisib -0.007 | gandotinib 0.018 | tozasertib 0 | [7] -0.062 | doramapimod 0.098 | ispinesib -0.081

ALKBH2 (UniProt Q6NS38)
inactive: [1] 0 | filanesib 0.135 | zotarolimus -0.096 | idasanutlin 0.058 | alisertib -0.302 | [2] -0.082 | gefitinib 0.024 | [3] 0.217 | lapatinib 0.074 | pictilisib -0.045 | [4] -0.163 | crizotinib 0.032 | [5] -0.298 | [6] 0.192 | duvelisib -0.056 | gandotinib 0.163 | tozasertib -0.064 | [7] 0.068 | doramapimod 0.179 | ispinesib -0.173

AKT1S1 isoform 3 (UniProt Q96B36)
inactive: [1] -0.085 | filanesib 0.045 | zotarolimus -0.003 | idasanutlin -0.044 | alisertib -0.028 | [2] 0 | gefitinib 0.019 | [3] 0.069 | lapatinib 0.011 | pictilisib 0.054 | [4] 0.031 | crizotinib 0.066 | [5] 0.058 | [6] 0.008 | duvelisib 0.16 | gandotinib 0.097 | tozasertib 0.008 | [7] 0 | doramapimod -0.005 | ispinesib 0.122

AHNAK (UniProt Q09666)
inactive: [1] -0.054 | filanesib 0.172 | zotarolimus -0.015 | idasanutlin 0.016 | alisertib -0.006 | [2] 0.196 | gefitinib 0.017 | [3] 0.007 | lapatinib 0.015 | pictilisib 0.063 | [4] 0.01 | crizotinib 0.047 | [5] 0.042 | [6] -0.029 | duvelisib 0.001 | gandotinib 0.009 | tozasertib -0.01 | [7] -0.065 | doramapimod 0.012 | ispinesib 0.105

ALKBH4 (UniProt Q9NXW9)
inactive: [1] -0.203 | filanesib -0.036 | zotarolimus 0.06 | idasanutlin -0.036 | alisertib 0.086 | [2] -0.058 | [3] 0.014 | lapatinib -0.023 | pictilisib 0.106 | [4] 0.082 | crizotinib -0.033 | [5] 0.172 | [6] 0.029 | gandotinib -0.084 | [7] 0.12 | doramapimod 0.037 | ispinesib -0.109

Copied from the results shown (two entries):
AKT1S1 isoform 3 (UniProt Q96B36)
inactive: [1] -0.085 | filanesib 0.045 | zotarolimus -0.003 | idasanutlin -0.044 | alisertib -0.028 | [2] 0 | gefitinib 0.019 | [3] 0.069 | lapatinib 0.011 | pictilisib 0.054 | [4] 0.031 | crizotinib 0.066 | [5] 0.058 | [6] 0.008 | duvelisib 0.16 | gandotinib 0.097 | tozasertib 0.008 | [7] 0 | doramapimod -0.005 | ispinesib 0.122

AHNAK (UniProt Q09666)
inactive: [1] -0.054 | filanesib 0.172 | zotarolimus -0.015 | idasanutlin 0.016 | alisertib -0.006 | [2] 0.196 | gefitinib 0.017 | [3] 0.007 | lapatinib 0.015 | pictilisib 0.063 | [4] 0.01 | crizotinib 0.047 | [5] 0.042 | [6] -0.029 | duvelisib 0.001 | gandotinib 0.009 | tozasertib -0.01 | [7] -0.065 | doramapimod 0.012 | ispinesib 0.105

Following part.

AK6 (UniProt Q9Y3D8)
inactive: [1] 0.009 | filanesib -0.052 | zotarolimus 0.003 | idasanutlin 0.012 | alisertib -0.035 | [2] 0.053 | gefitinib 0.03 | [3] 0.006 | lapatinib -0.049 | pictilisib -0.01 | [4] 0.151 | crizotinib -0.156 | [5] 0.175 | [6] 0.115 | gandotinib -0.049 | [7] 0.065 | doramapimod 0.008 | ispinesib -0.085

ALKBH5 (UniProt Q6P6C2)
inactive: [1] 0.124 | filanesib 0.001 | zotarolimus -0.067 | idasanutlin 0.016 | alisertib -0.12 | [2] 0.044 | gefitinib 0.023 | [3] -0.138 | lapatinib -0.008 | pictilisib 0.094 | [4] 0.048 | crizotinib 0.032 | [5] -0.11 | [6] 0.013 | gandotinib 0.267 | [7] -0.055 | doramapimod -0.01 | ispinesib 0.007

ALDH9A1 isoform 3 (UniProt P49189)
inactive: [1] -0.006 | filanesib -0.04 | zotarolimus 0.001 | idasanutlin -0.006 | alisertib 0.017 | [2] -0.01 | gefitinib -0.028 | [3] 0.041 | lapatinib -0.007 | pictilisib -0.002 | [4] -0.002 | crizotinib -0.002 | [5] 0.027 | [6] -0.042 | gandotinib 0.063 | [7] -0.002 | doramapimod -0.004 | ispinesib 0.006

ADD3 (UniProt Q9UEY8)
inactive: [1] 0.018 | filanesib 0.059 | zotarolimus -0.074 | idasanutlin 0.02 | alisertib -0.063 | [2] 0.057 | gefitinib 0.021 | [3] 0.063 | lapatinib -0.006 | pictilisib 0.075 | [4] 0 | crizotinib 0.023 | [5] 0.018 | [6] -0.079 | gandotinib -0.029 | [7] -0.059 | doramapimod 0.016 | ispinesib 0.061

ALG5 (UniProt Q9Y673)
inactive: [1] 0 | filanesib -0.054 | zotarolimus 0.039 | idasanutlin -0.139 | alisertib 0.675 | [2] 0.095 | gefitinib 0.023 | [3] 0.013 | lapatinib 0.046 | pictilisib 0.075 | [4] 0.005 | crizotinib -0.045 | [5] 0.06 | [6] -0.065 | gandotinib -0.084 | [7] 0.045 | doramapimod -0.032 | ispinesib 0.001

AMFR (UniProt Q9UKV5)
active: ispinesib -0.331
inactive: [1] -0.048 | filanesib -0.066 | zotarolimus -0.017 | idasanutlin 0.037 | alisertib -0.012 | [2] -0.136 | gefitinib 0.071 | [3] 0.016 | lapatinib 0.003 | pictilisib -0.093 | [4] -0.008 | crizotinib -0.04 | [5] 0.018 | [6] -0.034 | gandotinib 0.012 | [7] 0.071 | doramapimod 0.057

ALDH2 (UniProt P05091)
inactive: [1] -0.011 | filanesib -0.142 | zotarolimus 0.055 | idasanutlin -0.104 | alisertib 0.015 | [2] -0.006 | gefitinib 0.028 | [3] 0.069 | lapatinib -0.02 | pictilisib 0.043 | [4] -0.047 | crizotinib -0.044 | [5] 0.051 | [6] -0.038 | gandotinib -0.088 | [7] 0.022 | doramapimod 0.033 | ispinesib -0.023

AHCYL1 (UniProt O43865)
inactive: [1] 0.015 | filanesib -0.05 | zotarolimus -0.017 | idasanutlin -0.056 | alisertib -0.087 | [2] 0.046 | gefitinib 0.029 | [3] 0.093 | lapatinib 0.014 | pictilisib 0.126 | [4] 0.097 | crizotinib 0.018 | [5] 0.038 | [6] 0.02 | gandotinib 0.02 | [7] -0.036 | doramapimod -0.045 | ispinesib -0.015

ALDH18A1 (UniProt P54886)
inactive: [1] -0.024 | filanesib -0.01 | zotarolimus 0.045 | idasanutlin -0.233 | alisertib -0.09 | [2] 0.215 | gefitinib -0.18 | [3] 0.067 | pictilisib -0.101 | [4] -0.281 | crizotinib 0.08 | [5] -0.13 | [6] -0.036 | gandotinib -0.323 | [7] 0.032 | doramapimod -0.146 | ispinesib 0.164
active: lapatinib -0.652

ALDH6A1 (UniProt Q02252)
inactive: [1] -0.128 | filanesib -0.025 | zotarolimus 0.024 | idasanutlin -0.032 | alisertib -0.09 | [2] 0.029 | gefitinib 0.04 | [3] 0.066 | lapatinib 0.02 | pictilisib 0.063 | [4] -0.008 | crizotinib 0.042 | [5] 0.109 | [6] 0.009 | gandotinib -0.057 | [7] 0.008 | doramapimod 0.033 | ispinesib -0.042

ADPRHL2 (UniProt Q9NX46)
inactive: [1] 0.111 | filanesib -0.08 | zotarolimus 0.022 | idasanutlin -0.06 | alisertib 0.009 | gefitinib -0.028 | [3] 0.012 | lapatinib 0.03 | pictilisib 0.078 | [4] 0.052 | crizotinib 0.092 | [5] 0.045 | [6] -0.072 | gandotinib 0.07 | [7] 0.039 | doramapimod -0.017
active: [2] 0.245 | ispinesib 0.303

AGPS (UniProt O00116)
inactive: [1] 0.074 | filanesib -0.145 | zotarolimus 0.05 | idasanutlin -0.037 | alisertib -0.03 | [2] -0.044 | gefitinib 0.069 | [3] 0.048 | lapatinib 0.018 | pictilisib -0.003 | [4] 0.016 | crizotinib -0.038 | [5] 0.048 | [6] -0.053 | gandotinib -0.047 | [7] 0.19 | doramapimod 0.018 | ispinesib 0.015
